# Results reported in the supplement of paper PMC11006884.
# Protein sequences, listed by entry. Tags and fused reporters are not part of them. Lines headed by an entry give the natural chain unless they say otherwise; changes in a name come on top.
# UniProt O94927: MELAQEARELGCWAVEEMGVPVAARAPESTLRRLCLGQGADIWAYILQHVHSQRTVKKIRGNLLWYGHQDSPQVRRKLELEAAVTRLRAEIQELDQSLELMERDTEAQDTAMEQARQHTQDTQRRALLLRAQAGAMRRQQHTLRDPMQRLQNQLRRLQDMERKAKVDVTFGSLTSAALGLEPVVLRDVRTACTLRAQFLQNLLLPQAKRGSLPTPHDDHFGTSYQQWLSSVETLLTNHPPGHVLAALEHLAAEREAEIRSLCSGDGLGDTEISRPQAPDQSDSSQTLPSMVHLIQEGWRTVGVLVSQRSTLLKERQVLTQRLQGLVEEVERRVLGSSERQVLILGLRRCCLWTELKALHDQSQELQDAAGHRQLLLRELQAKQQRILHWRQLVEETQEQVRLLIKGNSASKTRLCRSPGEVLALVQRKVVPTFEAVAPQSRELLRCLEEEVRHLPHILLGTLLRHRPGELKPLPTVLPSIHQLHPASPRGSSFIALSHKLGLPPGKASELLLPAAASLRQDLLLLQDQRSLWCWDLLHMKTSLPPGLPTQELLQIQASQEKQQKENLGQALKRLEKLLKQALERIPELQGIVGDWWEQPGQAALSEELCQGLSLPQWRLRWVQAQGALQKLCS
# UniProt O95382: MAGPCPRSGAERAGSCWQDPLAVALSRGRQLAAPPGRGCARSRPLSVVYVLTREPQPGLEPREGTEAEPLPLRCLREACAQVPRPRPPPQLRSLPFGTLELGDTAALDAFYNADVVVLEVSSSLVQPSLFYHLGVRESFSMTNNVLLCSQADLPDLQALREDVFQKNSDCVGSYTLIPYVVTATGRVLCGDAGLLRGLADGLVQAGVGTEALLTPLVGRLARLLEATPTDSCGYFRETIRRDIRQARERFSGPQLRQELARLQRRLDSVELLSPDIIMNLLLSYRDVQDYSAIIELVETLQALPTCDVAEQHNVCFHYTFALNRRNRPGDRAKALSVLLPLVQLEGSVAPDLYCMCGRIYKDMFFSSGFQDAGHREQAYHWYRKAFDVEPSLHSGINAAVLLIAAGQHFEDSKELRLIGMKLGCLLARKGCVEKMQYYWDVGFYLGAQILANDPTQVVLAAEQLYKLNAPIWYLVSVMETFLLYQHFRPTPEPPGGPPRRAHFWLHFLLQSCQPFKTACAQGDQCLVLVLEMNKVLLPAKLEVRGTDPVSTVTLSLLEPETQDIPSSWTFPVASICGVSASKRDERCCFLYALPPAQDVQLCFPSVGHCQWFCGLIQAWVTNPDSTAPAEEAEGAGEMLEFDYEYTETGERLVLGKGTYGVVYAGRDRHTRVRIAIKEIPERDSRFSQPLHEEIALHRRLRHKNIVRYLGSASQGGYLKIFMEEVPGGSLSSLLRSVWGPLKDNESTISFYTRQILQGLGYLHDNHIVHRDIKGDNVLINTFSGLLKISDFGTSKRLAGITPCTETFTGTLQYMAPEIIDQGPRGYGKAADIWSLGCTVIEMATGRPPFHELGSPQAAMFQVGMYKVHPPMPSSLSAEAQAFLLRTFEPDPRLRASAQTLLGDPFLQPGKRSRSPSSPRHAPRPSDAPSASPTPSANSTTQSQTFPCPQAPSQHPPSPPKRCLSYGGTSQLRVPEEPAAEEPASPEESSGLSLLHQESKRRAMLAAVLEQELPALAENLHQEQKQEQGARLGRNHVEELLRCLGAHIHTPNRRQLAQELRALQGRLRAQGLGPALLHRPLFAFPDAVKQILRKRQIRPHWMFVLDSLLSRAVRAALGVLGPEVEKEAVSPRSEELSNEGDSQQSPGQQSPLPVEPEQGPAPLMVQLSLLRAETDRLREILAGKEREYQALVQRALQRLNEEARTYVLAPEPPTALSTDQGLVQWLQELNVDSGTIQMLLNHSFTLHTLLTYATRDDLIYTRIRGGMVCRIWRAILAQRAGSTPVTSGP
# UniProt P06748, whole entry, looked up: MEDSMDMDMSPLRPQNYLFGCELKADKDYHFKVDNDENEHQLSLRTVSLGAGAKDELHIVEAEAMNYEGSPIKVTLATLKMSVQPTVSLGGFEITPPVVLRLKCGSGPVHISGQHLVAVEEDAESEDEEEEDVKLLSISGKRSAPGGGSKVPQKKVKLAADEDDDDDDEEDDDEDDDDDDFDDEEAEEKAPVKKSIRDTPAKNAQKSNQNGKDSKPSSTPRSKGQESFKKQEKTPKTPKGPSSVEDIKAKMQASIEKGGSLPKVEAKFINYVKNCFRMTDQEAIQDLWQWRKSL
# UniProt P04150: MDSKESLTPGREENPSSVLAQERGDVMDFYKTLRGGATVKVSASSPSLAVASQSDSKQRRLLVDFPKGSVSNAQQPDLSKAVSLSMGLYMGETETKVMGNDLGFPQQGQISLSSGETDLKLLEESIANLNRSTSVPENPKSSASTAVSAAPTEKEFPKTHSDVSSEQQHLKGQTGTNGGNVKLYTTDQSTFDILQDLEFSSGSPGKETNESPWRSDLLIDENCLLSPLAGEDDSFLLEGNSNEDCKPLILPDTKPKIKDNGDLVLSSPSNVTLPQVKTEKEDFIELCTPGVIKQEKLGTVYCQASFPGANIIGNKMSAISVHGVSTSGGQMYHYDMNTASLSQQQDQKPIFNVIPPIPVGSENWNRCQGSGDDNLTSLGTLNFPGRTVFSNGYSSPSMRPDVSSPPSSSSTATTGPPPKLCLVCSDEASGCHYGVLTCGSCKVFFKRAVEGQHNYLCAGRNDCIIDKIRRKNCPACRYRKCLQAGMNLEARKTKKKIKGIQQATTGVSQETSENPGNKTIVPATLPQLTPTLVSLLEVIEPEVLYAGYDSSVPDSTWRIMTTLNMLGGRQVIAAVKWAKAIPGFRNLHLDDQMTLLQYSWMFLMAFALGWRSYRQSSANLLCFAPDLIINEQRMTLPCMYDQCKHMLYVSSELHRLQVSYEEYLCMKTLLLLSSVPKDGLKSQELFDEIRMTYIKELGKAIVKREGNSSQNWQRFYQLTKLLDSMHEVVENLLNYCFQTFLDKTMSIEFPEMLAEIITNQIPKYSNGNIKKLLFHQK
# UniProt P01106: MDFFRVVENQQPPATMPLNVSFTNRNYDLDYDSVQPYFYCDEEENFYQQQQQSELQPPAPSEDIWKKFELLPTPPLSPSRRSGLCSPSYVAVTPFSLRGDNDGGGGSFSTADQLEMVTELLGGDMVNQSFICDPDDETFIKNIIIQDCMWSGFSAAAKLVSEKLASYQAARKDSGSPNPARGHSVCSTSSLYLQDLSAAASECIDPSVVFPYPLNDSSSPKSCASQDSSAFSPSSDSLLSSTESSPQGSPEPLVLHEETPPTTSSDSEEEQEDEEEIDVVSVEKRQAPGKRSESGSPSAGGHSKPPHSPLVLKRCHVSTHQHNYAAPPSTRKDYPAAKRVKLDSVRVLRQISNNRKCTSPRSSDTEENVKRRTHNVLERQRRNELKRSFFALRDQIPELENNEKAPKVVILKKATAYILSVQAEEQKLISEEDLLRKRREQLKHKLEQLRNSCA
# UniProt O95336: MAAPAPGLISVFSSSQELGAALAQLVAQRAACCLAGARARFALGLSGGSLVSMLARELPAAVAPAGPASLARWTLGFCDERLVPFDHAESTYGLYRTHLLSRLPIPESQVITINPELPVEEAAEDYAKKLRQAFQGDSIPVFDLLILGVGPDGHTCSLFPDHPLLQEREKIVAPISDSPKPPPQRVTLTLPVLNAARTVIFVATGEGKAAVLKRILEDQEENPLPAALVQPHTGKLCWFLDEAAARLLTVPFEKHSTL
# UniProt P07814: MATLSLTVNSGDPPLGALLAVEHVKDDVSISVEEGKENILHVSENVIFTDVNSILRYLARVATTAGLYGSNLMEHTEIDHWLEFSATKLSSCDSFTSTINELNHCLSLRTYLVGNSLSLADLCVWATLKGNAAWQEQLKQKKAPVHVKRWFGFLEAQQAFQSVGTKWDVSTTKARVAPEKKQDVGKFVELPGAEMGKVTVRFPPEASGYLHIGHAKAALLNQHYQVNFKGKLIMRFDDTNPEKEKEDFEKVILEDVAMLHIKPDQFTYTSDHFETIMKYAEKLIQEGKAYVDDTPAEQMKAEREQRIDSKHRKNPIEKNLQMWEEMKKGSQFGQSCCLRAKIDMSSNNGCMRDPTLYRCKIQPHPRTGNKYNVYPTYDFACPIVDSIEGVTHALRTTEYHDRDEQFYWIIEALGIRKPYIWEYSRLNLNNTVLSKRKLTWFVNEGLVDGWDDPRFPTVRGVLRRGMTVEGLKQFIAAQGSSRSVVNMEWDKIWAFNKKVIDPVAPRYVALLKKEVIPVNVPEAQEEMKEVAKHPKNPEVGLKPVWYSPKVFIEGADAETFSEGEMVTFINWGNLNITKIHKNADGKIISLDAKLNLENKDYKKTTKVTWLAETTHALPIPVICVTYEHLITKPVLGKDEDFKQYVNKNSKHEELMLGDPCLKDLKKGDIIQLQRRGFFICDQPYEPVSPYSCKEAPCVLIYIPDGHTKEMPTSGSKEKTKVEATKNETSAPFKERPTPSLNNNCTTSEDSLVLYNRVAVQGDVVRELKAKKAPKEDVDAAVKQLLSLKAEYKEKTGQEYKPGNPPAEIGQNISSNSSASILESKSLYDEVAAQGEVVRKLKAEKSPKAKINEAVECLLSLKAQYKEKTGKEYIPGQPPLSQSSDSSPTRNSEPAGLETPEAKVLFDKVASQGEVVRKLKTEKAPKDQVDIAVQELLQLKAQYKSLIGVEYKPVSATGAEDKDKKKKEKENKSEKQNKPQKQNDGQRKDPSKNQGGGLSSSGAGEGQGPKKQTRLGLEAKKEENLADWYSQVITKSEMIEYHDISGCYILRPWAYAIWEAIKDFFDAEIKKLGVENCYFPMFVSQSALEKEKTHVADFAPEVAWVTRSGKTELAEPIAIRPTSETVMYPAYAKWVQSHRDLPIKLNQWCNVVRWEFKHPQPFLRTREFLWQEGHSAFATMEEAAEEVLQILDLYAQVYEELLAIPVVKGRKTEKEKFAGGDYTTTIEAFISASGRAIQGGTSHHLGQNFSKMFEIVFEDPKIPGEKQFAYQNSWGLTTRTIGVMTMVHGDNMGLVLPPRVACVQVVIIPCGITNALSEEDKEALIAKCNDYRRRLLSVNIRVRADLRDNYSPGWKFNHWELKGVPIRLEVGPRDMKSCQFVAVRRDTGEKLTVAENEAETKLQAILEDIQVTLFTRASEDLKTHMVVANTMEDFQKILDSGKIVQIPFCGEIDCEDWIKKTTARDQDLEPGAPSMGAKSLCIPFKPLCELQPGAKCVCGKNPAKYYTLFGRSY
# UniProt P04350, whole entry: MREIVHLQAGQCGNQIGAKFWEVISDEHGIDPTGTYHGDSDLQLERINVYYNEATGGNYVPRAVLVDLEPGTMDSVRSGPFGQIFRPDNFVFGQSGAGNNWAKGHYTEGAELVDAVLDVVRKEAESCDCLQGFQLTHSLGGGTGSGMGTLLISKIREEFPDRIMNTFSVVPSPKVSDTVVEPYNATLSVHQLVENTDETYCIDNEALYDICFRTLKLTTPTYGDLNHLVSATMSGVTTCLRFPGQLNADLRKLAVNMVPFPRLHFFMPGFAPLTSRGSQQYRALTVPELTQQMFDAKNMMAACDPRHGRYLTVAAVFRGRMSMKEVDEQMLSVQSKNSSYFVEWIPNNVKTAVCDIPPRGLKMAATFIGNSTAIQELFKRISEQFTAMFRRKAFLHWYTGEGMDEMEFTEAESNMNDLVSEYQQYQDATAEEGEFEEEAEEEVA
# UniProt O95544: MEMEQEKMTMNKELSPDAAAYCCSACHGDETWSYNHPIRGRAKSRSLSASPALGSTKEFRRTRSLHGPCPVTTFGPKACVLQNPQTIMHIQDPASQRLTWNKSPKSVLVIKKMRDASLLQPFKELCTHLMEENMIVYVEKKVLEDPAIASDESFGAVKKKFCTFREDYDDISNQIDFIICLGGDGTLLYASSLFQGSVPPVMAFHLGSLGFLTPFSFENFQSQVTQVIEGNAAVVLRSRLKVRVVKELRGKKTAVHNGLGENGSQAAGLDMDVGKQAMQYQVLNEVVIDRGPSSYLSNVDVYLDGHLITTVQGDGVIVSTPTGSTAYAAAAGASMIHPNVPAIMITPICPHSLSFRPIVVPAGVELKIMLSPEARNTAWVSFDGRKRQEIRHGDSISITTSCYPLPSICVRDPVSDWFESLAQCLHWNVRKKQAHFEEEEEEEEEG
# UniProt O95232: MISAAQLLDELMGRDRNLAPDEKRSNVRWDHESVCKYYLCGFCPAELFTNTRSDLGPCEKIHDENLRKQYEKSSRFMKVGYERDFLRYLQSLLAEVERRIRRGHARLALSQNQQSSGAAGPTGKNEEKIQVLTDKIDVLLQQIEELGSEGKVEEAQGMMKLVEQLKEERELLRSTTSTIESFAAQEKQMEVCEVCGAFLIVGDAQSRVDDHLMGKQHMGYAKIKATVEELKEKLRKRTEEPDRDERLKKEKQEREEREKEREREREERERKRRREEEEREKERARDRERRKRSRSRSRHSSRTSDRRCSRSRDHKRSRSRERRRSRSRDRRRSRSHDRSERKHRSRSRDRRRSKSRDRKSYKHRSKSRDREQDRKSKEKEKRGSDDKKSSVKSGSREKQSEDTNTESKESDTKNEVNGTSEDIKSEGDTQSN
# Only a part is listed here, and it is no random draw. The data scatter; read single values as rough.
# Compound: COC(=O)/C=C/c1ccccc1 [methyl cinnamate]
# Assay: log2 ratio of iodoacetamide-alkyne labeling of the cysteine site, DMSO over compound (competition); higher = stronger covalent engagement of the cysteine by the compound, active = 1 or more
# Conditions: 500 µM; treatment time 1 h; system: HEK293T cell lysate
# Method in brief: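 The log2 competition ratio per cysteine is defined as mean reporter intensity in control channels over mean reporter intensity in compound channels. Lysate from HEK293T cells (2 mg/mL) received electrophile (500 µM) or vehicle for 1 h at ambient temperature, followed by iodoacetamide alkyne for 1 h. Samples were clicked to sCIP-TMT reagents, pooled, trypsin-digested overnight at 37 °C, streptavidin-enriched, acid-eluted and run on Orbitrap Eclipse LC-MS/MS with FAIMS, with quantification in FragPipe. Three replicates with duplicate channels were used, and any cysteine quantified in only one replicate was excluded.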
row,Target,log2 ratio of iodoacetamide-alkyne labeling
1,UniProt O94927_C262,inactive: -0.165
2,UniProt O95071_C2267,inactive: -0.0654
3,PRPF6 C550 (UniProt O94906),inactive: 0.13
4,TK1 C206 (UniProt P04183),inactive: 0.174
5,UniProt O95382_C16,inactive: 0.284
6,RPN1 C477 (UniProt P04843),inactive: 0.164
7,SEC31A C173 (UniProt O94979),inactive: 0.195
8,GOT2 C382 (UniProt P00505),inactive: 0.022
9,SBF1 C553 (UniProt O95248),inactive: 0.151
10,MOCS2 C10 (UniProt O96007),inactive: 0.00812
11,MAP4K4 C883 (UniProt O95819),inactive: -0.0119
12,NPM1 C275 (UniProt P06748),inactive: 0.189
13,OAT C253 (UniProt P04181),inactive: -0.34
14,UniProt P07437_C12,inactive: 0.0311
15,TTC4 C110 (UniProt O95801),inactive: 0.191
16,ATP1A1 C428 (UniProt P05023),inactive: 0.277
17,NR3C1 C481 (UniProt P04150),inactive: 0.199
18,CAPN1 C115 (UniProt P07384),inactive: 0.486
19,GAPDH C156 (UniProt P04406),inactive: 0.14

row,Target,log2 ratio of iodoacetamide-alkyne labeling
1,PGK1 C379 (UniProt P00558),inactive: 0.0185
2,UniProt P07437_C127,inactive: 0.0678
3,MYC C70 (UniProt P01106),inactive: 0.34
4,PGLS C237 (UniProt O95336),inactive: -0.0217
5,RPLP0 C27 (UniProt P05388),inactive: 0.328
6,BAG3 C179 (UniProt O95817),inactive: 0.438
7,ATP1A1 C211 (UniProt P05023),inactive: 0.125
8,EPRS C1448 (UniProt P07814),inactive: 0.125
9,UniProt P04350_C12,inactive: 0.12
10,EPRS C1487 (UniProt P07814),inactive: 0.00376
11,PCNT C2150 (UniProt O95613),inactive: 0.335
12,SVIL C1989 (UniProt O95425),inactive: 0.358
13,EPRS C350 (UniProt P07814),inactive: 0.0636
14,NADK C79 (UniProt O95544),inactive: -0.134
15,UniProt P04439_C227,inactive: 0.137
16,UniProt O95232_C43,inactive: -0.325
17,ENO1 C339 (UniProt P06733),inactive: -0.227
18,GAPDH C152 (UniProt P04406),inactive: 0.139

# Look-ups from the list.
# In log2 ratio of iodoacetamide-alkyne labeling, RPLP0 C27 (UniProt P05388) is listed with inactive: 0.328
# In log2 ratio of iodoacetamide-alkyne labeling, SVIL C1989 (UniProt O95425) is listed with inactive: 0.358
# In log2 ratio of iodoacetamide-alkyne labeling, PCNT C2150 (UniProt O95613) is listed with inactive: 0.335
